Experimental findings from the supplement of paper PMC11732987, “Enantioselective OTUD7B fragment discovery through chemoproteomics screening and high-throughput optimisation” (Communications Chemistry, 2025) are described below.

The chains behind the UniProt entries cited, without tags or fusion partners. Where a name states a change or a piece, a line headed by the entry shows the natural chain unless it says otherwise. Residues count along the entry.
UniProt Q9Y613: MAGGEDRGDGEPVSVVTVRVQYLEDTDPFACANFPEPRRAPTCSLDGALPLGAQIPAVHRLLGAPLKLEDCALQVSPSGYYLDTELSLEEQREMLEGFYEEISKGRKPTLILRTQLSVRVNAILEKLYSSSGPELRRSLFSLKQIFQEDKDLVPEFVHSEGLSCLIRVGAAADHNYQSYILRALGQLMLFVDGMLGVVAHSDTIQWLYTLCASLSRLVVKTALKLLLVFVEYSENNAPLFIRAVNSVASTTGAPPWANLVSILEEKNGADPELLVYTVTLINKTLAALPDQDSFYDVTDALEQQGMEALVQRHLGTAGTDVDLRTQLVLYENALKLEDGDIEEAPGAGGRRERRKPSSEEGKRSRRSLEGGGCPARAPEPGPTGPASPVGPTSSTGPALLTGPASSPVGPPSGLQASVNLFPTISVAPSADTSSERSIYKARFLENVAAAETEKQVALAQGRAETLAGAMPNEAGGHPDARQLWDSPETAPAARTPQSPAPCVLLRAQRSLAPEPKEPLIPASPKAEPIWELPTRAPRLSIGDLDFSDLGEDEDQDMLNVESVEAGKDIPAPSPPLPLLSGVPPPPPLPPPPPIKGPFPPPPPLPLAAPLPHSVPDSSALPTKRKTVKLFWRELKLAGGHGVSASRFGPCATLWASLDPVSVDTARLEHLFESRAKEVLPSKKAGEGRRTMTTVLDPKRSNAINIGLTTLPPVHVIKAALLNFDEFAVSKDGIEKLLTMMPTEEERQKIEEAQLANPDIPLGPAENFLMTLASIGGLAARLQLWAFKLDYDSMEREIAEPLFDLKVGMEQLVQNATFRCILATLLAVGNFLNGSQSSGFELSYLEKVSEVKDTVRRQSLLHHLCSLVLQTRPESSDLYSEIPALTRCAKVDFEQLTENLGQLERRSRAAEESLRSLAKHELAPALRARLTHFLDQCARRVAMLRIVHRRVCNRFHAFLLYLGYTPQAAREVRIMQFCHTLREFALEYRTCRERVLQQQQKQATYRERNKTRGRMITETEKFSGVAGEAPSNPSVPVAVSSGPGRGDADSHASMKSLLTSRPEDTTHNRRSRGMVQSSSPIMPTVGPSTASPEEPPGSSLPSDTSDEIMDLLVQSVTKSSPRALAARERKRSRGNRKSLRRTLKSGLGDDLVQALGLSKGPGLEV
UniProt Q96AC1, 498-525: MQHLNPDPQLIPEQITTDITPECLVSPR
UniProt Q9UK73, whole entry, looked up: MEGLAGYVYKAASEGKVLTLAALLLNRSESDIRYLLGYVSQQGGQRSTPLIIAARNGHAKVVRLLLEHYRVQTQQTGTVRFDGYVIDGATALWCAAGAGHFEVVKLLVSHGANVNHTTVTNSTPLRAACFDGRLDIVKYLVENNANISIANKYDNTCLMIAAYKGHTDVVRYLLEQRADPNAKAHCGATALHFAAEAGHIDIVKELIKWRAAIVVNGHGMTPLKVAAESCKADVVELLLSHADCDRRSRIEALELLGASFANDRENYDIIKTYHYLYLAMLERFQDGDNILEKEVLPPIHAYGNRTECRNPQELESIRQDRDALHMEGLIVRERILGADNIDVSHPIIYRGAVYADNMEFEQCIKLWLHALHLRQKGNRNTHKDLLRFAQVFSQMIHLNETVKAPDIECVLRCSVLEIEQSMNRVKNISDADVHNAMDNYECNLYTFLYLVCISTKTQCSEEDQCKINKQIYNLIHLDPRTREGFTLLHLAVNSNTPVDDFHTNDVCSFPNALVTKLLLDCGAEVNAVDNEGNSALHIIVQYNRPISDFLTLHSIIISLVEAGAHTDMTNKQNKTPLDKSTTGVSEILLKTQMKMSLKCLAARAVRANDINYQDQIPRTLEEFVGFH
UniProt Q0JRZ9, 604-626: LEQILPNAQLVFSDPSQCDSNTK
UniProt Q14C86: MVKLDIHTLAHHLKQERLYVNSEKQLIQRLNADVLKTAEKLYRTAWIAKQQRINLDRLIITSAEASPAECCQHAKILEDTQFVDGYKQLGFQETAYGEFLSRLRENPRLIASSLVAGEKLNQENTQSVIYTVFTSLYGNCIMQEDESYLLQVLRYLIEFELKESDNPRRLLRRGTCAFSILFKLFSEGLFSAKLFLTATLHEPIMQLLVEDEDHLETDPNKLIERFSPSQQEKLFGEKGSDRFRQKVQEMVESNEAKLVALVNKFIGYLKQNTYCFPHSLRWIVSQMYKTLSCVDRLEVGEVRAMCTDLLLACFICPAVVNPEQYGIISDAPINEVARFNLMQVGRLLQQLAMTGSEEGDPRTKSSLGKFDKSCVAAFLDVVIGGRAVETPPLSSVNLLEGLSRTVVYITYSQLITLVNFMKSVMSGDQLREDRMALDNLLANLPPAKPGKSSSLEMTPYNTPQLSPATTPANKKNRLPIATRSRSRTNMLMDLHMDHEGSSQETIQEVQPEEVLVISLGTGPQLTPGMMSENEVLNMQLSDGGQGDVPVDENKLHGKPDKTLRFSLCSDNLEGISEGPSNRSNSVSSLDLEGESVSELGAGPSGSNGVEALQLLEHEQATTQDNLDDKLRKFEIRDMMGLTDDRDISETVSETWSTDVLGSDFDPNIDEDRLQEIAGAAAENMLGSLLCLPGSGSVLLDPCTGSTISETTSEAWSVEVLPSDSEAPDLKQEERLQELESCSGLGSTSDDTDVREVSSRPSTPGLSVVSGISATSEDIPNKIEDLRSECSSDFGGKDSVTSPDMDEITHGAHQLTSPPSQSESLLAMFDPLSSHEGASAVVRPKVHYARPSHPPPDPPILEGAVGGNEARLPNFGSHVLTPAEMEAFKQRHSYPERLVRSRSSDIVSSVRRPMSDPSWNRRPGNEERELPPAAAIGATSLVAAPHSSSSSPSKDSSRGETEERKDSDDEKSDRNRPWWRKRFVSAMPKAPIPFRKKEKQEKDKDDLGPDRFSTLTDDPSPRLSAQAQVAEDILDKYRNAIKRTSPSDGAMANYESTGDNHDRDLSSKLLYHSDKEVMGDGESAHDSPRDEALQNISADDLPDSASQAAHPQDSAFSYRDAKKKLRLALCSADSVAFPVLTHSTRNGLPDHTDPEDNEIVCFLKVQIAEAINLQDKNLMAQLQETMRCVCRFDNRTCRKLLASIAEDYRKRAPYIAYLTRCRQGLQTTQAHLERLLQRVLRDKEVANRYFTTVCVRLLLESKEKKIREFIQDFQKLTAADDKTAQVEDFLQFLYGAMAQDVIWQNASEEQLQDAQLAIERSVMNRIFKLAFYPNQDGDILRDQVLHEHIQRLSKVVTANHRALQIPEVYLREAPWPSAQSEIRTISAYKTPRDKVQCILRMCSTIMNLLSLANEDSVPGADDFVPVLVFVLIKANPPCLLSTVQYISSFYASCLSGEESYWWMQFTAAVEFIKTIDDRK
UniProt Q53R41: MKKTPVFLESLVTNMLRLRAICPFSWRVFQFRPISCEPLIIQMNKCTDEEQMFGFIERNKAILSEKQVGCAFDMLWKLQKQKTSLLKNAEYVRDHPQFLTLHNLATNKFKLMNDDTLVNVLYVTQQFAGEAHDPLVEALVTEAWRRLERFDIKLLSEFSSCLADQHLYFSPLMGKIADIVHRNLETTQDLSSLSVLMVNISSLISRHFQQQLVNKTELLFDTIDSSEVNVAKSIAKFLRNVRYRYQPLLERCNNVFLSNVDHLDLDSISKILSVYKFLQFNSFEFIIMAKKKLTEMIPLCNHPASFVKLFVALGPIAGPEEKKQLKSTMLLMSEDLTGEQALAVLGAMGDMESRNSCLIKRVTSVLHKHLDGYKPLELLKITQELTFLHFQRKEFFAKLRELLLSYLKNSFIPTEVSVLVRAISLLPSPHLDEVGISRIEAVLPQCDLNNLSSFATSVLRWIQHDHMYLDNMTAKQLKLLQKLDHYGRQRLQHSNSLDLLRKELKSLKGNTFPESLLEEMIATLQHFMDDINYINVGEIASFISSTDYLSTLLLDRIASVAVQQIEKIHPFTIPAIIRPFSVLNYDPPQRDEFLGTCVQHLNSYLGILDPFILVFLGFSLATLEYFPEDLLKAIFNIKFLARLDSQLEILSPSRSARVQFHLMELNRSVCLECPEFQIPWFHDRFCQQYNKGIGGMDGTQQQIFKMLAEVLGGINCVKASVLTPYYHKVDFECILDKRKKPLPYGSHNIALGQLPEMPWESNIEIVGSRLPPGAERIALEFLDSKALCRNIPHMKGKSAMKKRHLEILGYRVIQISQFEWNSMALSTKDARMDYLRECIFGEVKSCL
UniProt Q96I24: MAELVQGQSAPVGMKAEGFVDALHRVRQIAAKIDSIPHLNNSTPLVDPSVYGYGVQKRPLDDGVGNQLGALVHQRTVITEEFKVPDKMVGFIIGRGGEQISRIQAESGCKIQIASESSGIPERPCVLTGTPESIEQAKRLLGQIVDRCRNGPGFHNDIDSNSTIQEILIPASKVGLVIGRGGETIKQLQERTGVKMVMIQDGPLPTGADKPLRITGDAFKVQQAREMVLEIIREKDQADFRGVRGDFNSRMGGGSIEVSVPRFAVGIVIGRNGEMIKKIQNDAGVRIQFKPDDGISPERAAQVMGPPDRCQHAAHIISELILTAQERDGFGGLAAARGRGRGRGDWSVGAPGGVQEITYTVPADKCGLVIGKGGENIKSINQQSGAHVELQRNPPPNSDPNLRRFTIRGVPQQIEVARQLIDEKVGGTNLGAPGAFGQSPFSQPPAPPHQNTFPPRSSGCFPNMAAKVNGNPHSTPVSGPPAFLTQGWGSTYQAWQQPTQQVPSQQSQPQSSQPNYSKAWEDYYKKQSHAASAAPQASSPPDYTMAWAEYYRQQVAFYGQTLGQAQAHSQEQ
UniProt Q14318: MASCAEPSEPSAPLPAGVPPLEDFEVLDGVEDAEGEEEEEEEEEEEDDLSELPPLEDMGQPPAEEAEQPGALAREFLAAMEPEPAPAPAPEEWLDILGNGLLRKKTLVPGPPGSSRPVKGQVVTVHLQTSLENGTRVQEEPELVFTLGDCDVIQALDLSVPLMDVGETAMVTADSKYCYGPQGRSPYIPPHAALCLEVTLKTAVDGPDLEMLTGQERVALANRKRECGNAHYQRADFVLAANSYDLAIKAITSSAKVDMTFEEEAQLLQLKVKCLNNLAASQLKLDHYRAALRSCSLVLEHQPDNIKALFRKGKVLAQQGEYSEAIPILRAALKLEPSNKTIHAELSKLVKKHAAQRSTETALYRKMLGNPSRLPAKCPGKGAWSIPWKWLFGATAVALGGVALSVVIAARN
UniProt O14772: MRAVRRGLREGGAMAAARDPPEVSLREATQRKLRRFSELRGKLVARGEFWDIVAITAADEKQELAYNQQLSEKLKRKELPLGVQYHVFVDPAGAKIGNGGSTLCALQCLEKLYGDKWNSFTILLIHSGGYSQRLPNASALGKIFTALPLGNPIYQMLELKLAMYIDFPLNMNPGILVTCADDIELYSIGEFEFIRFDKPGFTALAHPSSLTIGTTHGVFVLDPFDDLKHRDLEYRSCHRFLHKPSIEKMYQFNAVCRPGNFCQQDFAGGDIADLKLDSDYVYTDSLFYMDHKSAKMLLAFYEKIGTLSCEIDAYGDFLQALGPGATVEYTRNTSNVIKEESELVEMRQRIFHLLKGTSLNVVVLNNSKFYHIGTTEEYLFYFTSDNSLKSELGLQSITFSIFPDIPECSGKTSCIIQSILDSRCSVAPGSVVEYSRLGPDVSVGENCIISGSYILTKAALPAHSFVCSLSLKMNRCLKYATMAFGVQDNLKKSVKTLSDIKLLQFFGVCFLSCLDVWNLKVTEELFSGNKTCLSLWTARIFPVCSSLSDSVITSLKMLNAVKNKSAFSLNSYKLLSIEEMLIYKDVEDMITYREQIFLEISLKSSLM
UniProt Q9NYY8: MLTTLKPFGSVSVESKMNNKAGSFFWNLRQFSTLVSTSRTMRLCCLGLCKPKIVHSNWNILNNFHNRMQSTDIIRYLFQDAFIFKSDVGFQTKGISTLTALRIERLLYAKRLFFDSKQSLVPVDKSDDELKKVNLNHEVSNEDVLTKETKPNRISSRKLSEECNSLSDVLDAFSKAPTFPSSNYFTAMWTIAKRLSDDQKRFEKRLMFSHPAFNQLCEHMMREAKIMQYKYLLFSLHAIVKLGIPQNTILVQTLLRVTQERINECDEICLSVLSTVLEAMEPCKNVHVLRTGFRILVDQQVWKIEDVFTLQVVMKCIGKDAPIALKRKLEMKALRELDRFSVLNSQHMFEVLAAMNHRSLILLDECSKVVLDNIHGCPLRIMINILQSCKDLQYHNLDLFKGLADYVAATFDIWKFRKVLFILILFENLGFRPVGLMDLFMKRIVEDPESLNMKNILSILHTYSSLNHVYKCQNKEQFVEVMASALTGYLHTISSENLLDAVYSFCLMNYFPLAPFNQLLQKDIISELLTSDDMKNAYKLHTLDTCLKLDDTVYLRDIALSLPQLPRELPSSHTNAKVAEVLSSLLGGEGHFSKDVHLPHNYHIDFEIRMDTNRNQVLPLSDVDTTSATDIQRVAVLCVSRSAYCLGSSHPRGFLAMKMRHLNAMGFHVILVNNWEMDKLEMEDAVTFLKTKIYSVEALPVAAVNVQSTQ

The list shows a part of the results. The data scatter; read single values as rough.

Compound in one experiment: ClCC(=O)N[C@H]1CCCc2ccccc12
In words: log2 mean competition ratio of IA-DTB cysteine labelling (DMSO/compound) (log2 ratio); higher = stronger cysteine engagement by compound. As to conditions: 50 µM; treatment time: 4 h; cell line lysate: HEK293T. The method, then: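 IA-DTB competitive cysteine chemoproteomics in HEK293T RIPA lysate. Lysates were treated with compound 29 or 30 at 50 or 200 µM for 4 h, then IA-DTB (500 µM, 1 h), trypsin-digested, NeutrAvidin-enriched and analysed by diaPASEF. Competition ratio = intensity DMSO / intensity compound (n=4 treated, n=64 DMSO); binding: mean log2 CR ≥ 1 and p ≤ 0.05 plus QC filters. Target is the cysteine site.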
For the target FHOD1 C164 (UniProt Q9Y613), the “log2 mean competition ratio” value was -0.308.

On to FERMT2 C520 (UniProt Q96AC1), for which the “log2 mean competition ratio” value is -0.154.

As to FEM1B C129 (UniProt Q9UK73), the “log2 mean competition ratio” value was -0.366.

As for FCHO2 C621 (UniProt Q0JRZ9), the “log2 mean competition ratio” value is -0.0116.

Turning to FHL1 C71 (UniProt Q13642), the “log2 mean competition ratio” value is -0.184.

On to GAPVD1 C789 (UniProt Q14C86), for which the “log2 mean competition ratio” value came to 0.112.

For FXR1 C141 (UniProt P51114), the “log2 mean competition ratio” value is -0.279.

As for GAREM1 C9, the “log2 mean competition ratio” value worked out at 0.224.

Consider FASTKD1 C838 (UniProt Q53R41), for which the “log2 mean competition ratio” value was 0.473.

As for GART C1005, the “log2 mean competition ratio” value is 0.046.

With FLNA C1453, the “log2 mean competition ratio” value is -0.13.

For the target FLNC C1103 (UniProt Q14315), the “log2 mean competition ratio” value is -0.101.

As to FUBP3 C109 (UniProt Q96I24), the “log2 mean competition ratio” value was -0.132.

With FKBP8 C295 (UniProt Q14318), the “log2 mean competition ratio” value was -0.595.

With FPGT C424 (UniProt O14772), the “log2 mean competition ratio” value is 0.454.

As for FASTKD5 C670 (UniProt Q7L8L6), the “log2 mean competition ratio” value is 0.0737.

For the target GAPVD1 C275 (UniProt Q14C86), the “log2 mean competition ratio” value is -0.334.

Turning to FOXC1 C135, the “log2 mean competition ratio” value turned out to be 0.0264.

For the target FASTKD2 C645 (UniProt Q9NYY8), the “log2 mean competition ratio” value was -0.078.

Take GARS1 C180: the “log2 mean competition ratio” value was 0.203.

The same experiment, now with this note: 200 µM; treatment time: 4 h; cell line lysate: HEK293T.
As to FHOD1 C164 (UniProt Q9Y613), the “log2 mean competition ratio” value is -0.0586.

In the case of FERMT2 C520 (UniProt Q96AC1), the “log2 mean competition ratio” value was -0.181.

FEM1B C129 (UniProt Q9UK73): the “log2 mean competition ratio” value was determined as 0.0547.

In the case of FCHO2 C621 (UniProt Q0JRZ9), the “log2 mean competition ratio” value was determined as 0.0069.

With FHL1 C71 (UniProt Q13642), the “log2 mean competition ratio” value is -0.353.

As for GAPVD1 C789 (UniProt Q14C86), the “log2 mean competition ratio” value was 0.0171.

Regarding FXR1 C141 (UniProt P51114), the “log2 mean competition ratio” value is -0.226.

On to GAREM1 C9, for which the “log2 mean competition ratio” value was 0.273.

For the target FASTKD1 C838 (UniProt Q53R41), the “log2 mean competition ratio” value stood at 0.00804.

As to GART C1005, the “log2 mean competition ratio” value came out at 0.0384.

On to FLNA C1453, for which the “log2 mean competition ratio” value is -0.00808.

As for FLNC C1103 (UniProt Q14315), the “log2 mean competition ratio” value was determined as 0.0988.

FUBP3 C109 (UniProt Q96I24): the “log2 mean competition ratio” value came out at 0.194.

As for FKBP8 C295 (UniProt Q14318), the “log2 mean competition ratio” value is -0.0948.

Turning to FPGT C424 (UniProt O14772), the “log2 mean competition ratio” value is -0.19.

As to FASTKD5 C670 (UniProt Q7L8L6), the “log2 mean competition ratio” value came out at 0.294.

Consider GAPVD1 C275 (UniProt Q14C86), for which the “log2 mean competition ratio” value was -0.103.

For FOXC1 C135, the “log2 mean competition ratio” value amounted to 0.327.

On to FASTKD2 C645 (UniProt Q9NYY8), for which the “log2 mean competition ratio” value is -0.331.

For the target GARS1 C180, the “log2 mean competition ratio” value is -0.282.
